Data taken from PubChem BioAssay AID493014 (National Center for Advancing Translational Sciences (NCATS), 2011).
Among all 340,000 compounds or so, about 170 (0.05%) were called active. The inconclusive results got no clear call from the source; some entries with a clear call stand among them for comparison. The call rests on the fitted dose curve; in most records, active means well fitted inhibition curve with a large enough effect in the signal ratio, with a control signal flat (not every such curve was filed as active); inconclusive means small, poorly fitted or top-dose-only effect, or effect the other way, or a change in a side signal; inactive means flat fitted curve, though single readings scatter; the % refers to the signal ratio. Potencies of inconclusive entries are doubtful fits and often do not repeat.

Test: qHTS Assay to Find Inhibitors of Chronic Active B-Cell Receptor Signaling;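 on activity change, negative = inhibition: plate controls were basal doxycycline-induced cells for no effect and cells given 10 µM MG132 for full effect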
Details: ABC-DLBCL IkBa-CBG/CBR reporter, luminescence ratio (green luciferase fused to IkBa over red control in TMD8 lymphoma cells), 4 h; activity change, negative = inhibition: at 46.1 µM (top of the series)
Outline: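 TMD8 human ABC-DLBCL cells with doxycycline-inducible IκBα–green luciferase fusion and unfused red luciferase, in 0.5% FBS medium; compounds up to 46 uM, 4 h at 37C. Green/red luminescence ratio, filter-overlap corrected, fitted to concentration-response curves.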
Potency means the concentration at half of the fitted maximal effect.

Compound	activity change, negative = inhibition	Potency
Cc1ccc(C(=O)NCc2ccco2)c(C)c1	inactive: 1.02%	
O=C(OCC(=O)c1c[nH]c2ccccc12)c1cc(S(=O)(=O)N2CCOCC2)ccc1F	inconclusive: -5.89%	
COc1ccc(S(=O)(=O)N2CCC(C(=O)NC3CC3)CC2)cc1OC	inactive: 0.474%	
O=C(O)c1ccc(/C=N/NC(=O)c2cc3ccccc3cc2O)cc1		inconclusive: 18.4 µM [falling, partial curve]
COc1ccc2cc(CO)n(C)c2c1	inconclusive: 4.57%	
CN(CC(=O)Nc1ccc(Cl)c(Cl)c1)C(=O)CNC(=O)C1CCCCC1	inconclusive: 4.51%	
CCOC(=O)c1nnn(-c2nonc2N)c1CN(CC)c1ccccc1	inconclusive: -12.4%	
COc1ccccc1CCC(=O)N1CCC(n2nccc2NC(=O)CC(C)C)CC1	inconclusive: -3.06%	
CCOc1ccc(-c2nnc3ccc(SCC(=O)Nc4cc(C)on4)nn23)cc1	inconclusive: -0.331%	
CCN(C(=O)COC(=O)c1cc([N+](=O)[O-])ccc1N1CCCCC1)C1CCS(=O)(=O)C1 (centres undefined)	inconclusive: 0.522%	
N#Cc1ccc(-c2ccc(OCC(=O)Nc3cccnc3)cc2)cc1	inactive: -0.734%	
Cc1oc2c(CN3CCCC3)c(O)ccc2c(=O)c1-c1ccccc1	inconclusive: -3.54%	
COc1ccc(C(=O)c2ccc(OC)c(N)c2)cc1N	inconclusive: -15.5%	
COc1ccc(CCNC(=O)c2cc(-c3ccco3)on2)cc1OC	inconclusive: -6.73%	
O=c1[nH]c2ccccc2nc1/C=C/c1ccc(F)cc1		inconclusive: 35.5 µM [rising, single point]
O=C(Nc1ccc(Cl)cc1Cl)c1cc(S(=O)(=O)N2CCCCCC2)ccc1F	inconclusive: 4.39%	
Cc1ccc(NC(=O)OCc2cccs2)cc1		inconclusive: 20 µM [falling, single point]
Cc1c(C(=O)N(C)CC(=O)Nc2cccc(F)c2)oc2c(Cl)cccc12		inconclusive: 29.1 µM [falling, partial curve, poor fit]
O=[N+]([O-])c1ccccc1S(=O)(=O)NCc1ccc(F)cc1	inconclusive: 8.84%	
N#Cc1ccccc1NC(=O)CSc1nccn1CCc1ccccc1		inconclusive: 6.51 µM [falling, partial curve, poor fit]

Compound	activity change, negative = inhibition	Potency
CCCCNc1ccc(C(=O)OCCN(C)C)cc1	inconclusive: 2.59%	
Cc1cc(N2CCN(C(=O)c3ccco3)CC2)nc(-c2ccccc2)n1	inconclusive: 12.6%	
C#CCOc1nc2c(c(=O)n(C)c(=O)n2C)n1Cc1ccccc1	inconclusive: 19%	
COc1cccc(OCc2ccc(Cl)cc2)c1C#N	inconclusive: -17.7%	
CCOCCc1c(O)nc(SCC)[nH]c1=O	inactive: 6.81%	
CCc1cccc(CC)c1NC(=O)COC(=O)c1cccc(S(=O)(=O)N2CCc3ccccc3C2)c1	inconclusive: -1.48%	
Cc1c(CCO)c(=O)n(-c2ccccc2)n1S(=O)(=O)c1c(Cl)cc(Cl)cc1Cl	inconclusive: 0.147%	
COc1cc(/C=N/N=C2/SCC(=O)N2c2ccc(O)cc2)ccc1O		inconclusive: 20 µM [falling, partial curve, poor fit]
CC(=O)NC1Sc2ccccc2N=C1c1ccccc1 (centres undefined)	inconclusive: 5.77%	
CCOC(=O)C(C)N1C(=O)S/C(=C/c2cc(C)n(-c3ccccn3)c2C)C1=O (centres undefined)		inconclusive: 20.6 µM [falling, single point]
CC(C)Nc1nnc(SCC(=O)N2CCN(C(=O)c3ccco3)CC2)s1	inconclusive: -0.804%	
COC(=O)c1sccc1NC(=O)Cc1ccc(Br)cc1	inconclusive: 6.79%	
COc1ccc(C(=O)CSc2nnc3ccccn23)cc1OC	inactive: 1.07%	
O=C(OC1CCCCC1=O)c1cccc(S(=O)(=O)NCc2ccccc2)c1 (centres undefined)	inconclusive: -10.9%	
CCN1CCN(Cc2ccc(NC(=O)c3ccc(C)c(NC(=O)c4cccc5[nH]ccc45)c3)cc2C(F)(F)F)CC1	inconclusive: -2.76%	
O=c1c(Br)c(Br)cnn1-c1ccccc1	inconclusive: 3.72%	
O=C(COc1cccc(F)c1)N1c2ccccc2Sc2ccccc21	inactive: -7.92%	
Cn1cnc([N+](=O)[O-])c1Oc1cccc(O)c1	inconclusive: -18.6%	
COc1ccc(NC(=O)c2ccc(-c3ccc(-c4noc(C)n4)cc3C)cc2)cc1N1CCN(C)CC1		inconclusive: 29.1 µM [falling, single point]

Two records drawn at random from those above, as already listed:
Compound	activity change, negative = inhibition	Potency
Cc1ccc(C(=O)NCc2ccco2)c(C)c1	inactive: 1.02%	
N#Cc1ccc(-c2ccc(OCC(=O)Nc3cccnc3)cc2)cc1	inactive: -0.734%	
